Laboratory results as given in PMC12803952.
No constants are given. Whether binding was seen depends on the method and setting. Binding seen in cells or lysates may run through a third protein.

Sequences of proteins named here, by UniProt entry; tags and fusion partners are left off. A change or cut given only in a name is not applied to a line headed by its entry.
UniProt O75330: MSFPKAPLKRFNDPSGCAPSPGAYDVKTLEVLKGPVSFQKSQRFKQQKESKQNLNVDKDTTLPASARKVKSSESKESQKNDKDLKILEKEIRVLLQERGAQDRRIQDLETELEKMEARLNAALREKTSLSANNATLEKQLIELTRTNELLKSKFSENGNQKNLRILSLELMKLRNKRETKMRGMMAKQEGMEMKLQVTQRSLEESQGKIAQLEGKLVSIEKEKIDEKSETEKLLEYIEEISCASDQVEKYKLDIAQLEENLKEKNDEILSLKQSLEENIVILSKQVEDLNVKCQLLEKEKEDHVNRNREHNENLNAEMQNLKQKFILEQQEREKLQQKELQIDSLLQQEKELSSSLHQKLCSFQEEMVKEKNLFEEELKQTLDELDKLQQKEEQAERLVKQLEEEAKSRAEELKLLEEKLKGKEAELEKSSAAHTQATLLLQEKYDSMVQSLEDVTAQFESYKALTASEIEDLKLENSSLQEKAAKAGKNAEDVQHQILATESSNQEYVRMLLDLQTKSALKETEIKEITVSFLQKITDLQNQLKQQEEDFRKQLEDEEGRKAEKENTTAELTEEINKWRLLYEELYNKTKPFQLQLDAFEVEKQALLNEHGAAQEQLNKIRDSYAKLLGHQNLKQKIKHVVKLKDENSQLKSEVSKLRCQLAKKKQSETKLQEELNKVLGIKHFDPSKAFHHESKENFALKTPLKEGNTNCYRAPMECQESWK

Molecular target: HMMR^L373A,F374A-GFP (human) (UniProt O75330)
Assay: co-IP; GFP nanobody on Sepharose, IP of HMMR-GFP variants restored in HMMR−/− U2OS cells, asynchronous or mitotic (STLC 5 μM, 16 h); western blot

binding: no binding
B1: Scaffold Anchor of CK1 (SACK1) domain-containing protein D (protein, UniProt Q9H4H8 1-585)
chain: MALLSEGLDEVPAACLSPCGPPNPTELFSESRRLALEELVAGGPEAFAAFLRRERLARFLNPDEVHAILRAAERPGEEGAAAAAAAEDSFGSSHDCSSGTYFPEQSDLEPPLLELGWPAFYQGAYRGATRVETHFQPRGAGEGGPYGCKDALRQQLRSAREVIAVVMDVFTDIDIFRDLQEICRKQGVAVYILLDQALLSQFLDMCMDLKVHPEQEKLMTVRTITGNIYYARSGTKIIGKVHEKFTLIDGIRVATGSYSFTWTDGKLNSSNLVILSGQVVEHFDLEFRILYAQSKPISPKLLSHFQSSNKFDHLTNRKPQSKELTLGNLLRMRLARLSSTPRKADLDPEMPAEGKAERKPHDCESSTVSEEDYFSSHRDELQSRKAIDAATQTEPGEEMPGLSVSEVGTQTSITTACAGTQTAVITRIASSQTTIWSRSTTTQTDMDENILFPRGTQSTEGSPVSKMSVSRSSSLKSSSSVSSQGSVASSTGSPASIRTTDFHNPGYPKYLGTPHLELYLSDSLRNLNKERQFHFAGIRSRLNHMLAMLSRRTLFTENHLGLHSGNFSRVNLLAVRDVALYPSYQ
